Measured values as given in patent publication US4466806A, “Dyeing compositions containing 3-amino-4-nitroanisole derivatives and their use in dyeing keratin fibres as well as certain new said derivatives” (L'Oreal, priority 1980, dated 1984).

Assay: Colouration of bleached hair by a solution of the dyestuff, expressed in Munsell's notation (HV/C)
Design: species or system human
Conditions: 28° C., 30 minutes, 0.00028 mol dye in 15 ml ethanol and 85 ml water, pH 9

Compared with `COc1ccc([N+](=O)[O-])c(NCC(O)CO)c1` (stereo not drawn) [3-N-(β,γ-dihydroxypropyl)-amino-4-nitroanisole], `COc1ccc([N+](=O)[O-])c(NCC(C)O)c1` (stereo not drawn) [3-N-(β-hydroxypropyl)-amino-4-nitroanisole] is lower in “chromaticity (C in Munsell's notation)” value: 9.5 for the first, 8.5 for the second.

In the case of `COc1ccc([N+](=O)[O-])c(NCCO)c1` [3-N-(β-hydroxyethyl)-amino-4-nitroanisole], the “chromaticity (C in Munsell's notation)” value is reported as 10.
